{
  "sequences": {"note": "Amino acid sequences for entries named in this document (tags omitted).", "UniProt Q9Y230": "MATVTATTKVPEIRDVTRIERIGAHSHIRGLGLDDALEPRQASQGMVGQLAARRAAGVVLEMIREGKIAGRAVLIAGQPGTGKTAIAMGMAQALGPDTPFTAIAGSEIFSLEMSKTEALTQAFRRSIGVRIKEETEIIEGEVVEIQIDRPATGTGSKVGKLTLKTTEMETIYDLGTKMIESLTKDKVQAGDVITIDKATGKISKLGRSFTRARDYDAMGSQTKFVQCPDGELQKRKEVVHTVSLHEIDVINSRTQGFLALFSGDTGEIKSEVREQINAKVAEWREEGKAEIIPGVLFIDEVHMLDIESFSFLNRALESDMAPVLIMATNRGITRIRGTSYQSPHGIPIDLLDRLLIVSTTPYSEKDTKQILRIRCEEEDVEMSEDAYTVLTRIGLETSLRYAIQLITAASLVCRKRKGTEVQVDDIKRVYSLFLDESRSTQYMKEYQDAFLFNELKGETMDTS", "UniProt Q9Y4A5": "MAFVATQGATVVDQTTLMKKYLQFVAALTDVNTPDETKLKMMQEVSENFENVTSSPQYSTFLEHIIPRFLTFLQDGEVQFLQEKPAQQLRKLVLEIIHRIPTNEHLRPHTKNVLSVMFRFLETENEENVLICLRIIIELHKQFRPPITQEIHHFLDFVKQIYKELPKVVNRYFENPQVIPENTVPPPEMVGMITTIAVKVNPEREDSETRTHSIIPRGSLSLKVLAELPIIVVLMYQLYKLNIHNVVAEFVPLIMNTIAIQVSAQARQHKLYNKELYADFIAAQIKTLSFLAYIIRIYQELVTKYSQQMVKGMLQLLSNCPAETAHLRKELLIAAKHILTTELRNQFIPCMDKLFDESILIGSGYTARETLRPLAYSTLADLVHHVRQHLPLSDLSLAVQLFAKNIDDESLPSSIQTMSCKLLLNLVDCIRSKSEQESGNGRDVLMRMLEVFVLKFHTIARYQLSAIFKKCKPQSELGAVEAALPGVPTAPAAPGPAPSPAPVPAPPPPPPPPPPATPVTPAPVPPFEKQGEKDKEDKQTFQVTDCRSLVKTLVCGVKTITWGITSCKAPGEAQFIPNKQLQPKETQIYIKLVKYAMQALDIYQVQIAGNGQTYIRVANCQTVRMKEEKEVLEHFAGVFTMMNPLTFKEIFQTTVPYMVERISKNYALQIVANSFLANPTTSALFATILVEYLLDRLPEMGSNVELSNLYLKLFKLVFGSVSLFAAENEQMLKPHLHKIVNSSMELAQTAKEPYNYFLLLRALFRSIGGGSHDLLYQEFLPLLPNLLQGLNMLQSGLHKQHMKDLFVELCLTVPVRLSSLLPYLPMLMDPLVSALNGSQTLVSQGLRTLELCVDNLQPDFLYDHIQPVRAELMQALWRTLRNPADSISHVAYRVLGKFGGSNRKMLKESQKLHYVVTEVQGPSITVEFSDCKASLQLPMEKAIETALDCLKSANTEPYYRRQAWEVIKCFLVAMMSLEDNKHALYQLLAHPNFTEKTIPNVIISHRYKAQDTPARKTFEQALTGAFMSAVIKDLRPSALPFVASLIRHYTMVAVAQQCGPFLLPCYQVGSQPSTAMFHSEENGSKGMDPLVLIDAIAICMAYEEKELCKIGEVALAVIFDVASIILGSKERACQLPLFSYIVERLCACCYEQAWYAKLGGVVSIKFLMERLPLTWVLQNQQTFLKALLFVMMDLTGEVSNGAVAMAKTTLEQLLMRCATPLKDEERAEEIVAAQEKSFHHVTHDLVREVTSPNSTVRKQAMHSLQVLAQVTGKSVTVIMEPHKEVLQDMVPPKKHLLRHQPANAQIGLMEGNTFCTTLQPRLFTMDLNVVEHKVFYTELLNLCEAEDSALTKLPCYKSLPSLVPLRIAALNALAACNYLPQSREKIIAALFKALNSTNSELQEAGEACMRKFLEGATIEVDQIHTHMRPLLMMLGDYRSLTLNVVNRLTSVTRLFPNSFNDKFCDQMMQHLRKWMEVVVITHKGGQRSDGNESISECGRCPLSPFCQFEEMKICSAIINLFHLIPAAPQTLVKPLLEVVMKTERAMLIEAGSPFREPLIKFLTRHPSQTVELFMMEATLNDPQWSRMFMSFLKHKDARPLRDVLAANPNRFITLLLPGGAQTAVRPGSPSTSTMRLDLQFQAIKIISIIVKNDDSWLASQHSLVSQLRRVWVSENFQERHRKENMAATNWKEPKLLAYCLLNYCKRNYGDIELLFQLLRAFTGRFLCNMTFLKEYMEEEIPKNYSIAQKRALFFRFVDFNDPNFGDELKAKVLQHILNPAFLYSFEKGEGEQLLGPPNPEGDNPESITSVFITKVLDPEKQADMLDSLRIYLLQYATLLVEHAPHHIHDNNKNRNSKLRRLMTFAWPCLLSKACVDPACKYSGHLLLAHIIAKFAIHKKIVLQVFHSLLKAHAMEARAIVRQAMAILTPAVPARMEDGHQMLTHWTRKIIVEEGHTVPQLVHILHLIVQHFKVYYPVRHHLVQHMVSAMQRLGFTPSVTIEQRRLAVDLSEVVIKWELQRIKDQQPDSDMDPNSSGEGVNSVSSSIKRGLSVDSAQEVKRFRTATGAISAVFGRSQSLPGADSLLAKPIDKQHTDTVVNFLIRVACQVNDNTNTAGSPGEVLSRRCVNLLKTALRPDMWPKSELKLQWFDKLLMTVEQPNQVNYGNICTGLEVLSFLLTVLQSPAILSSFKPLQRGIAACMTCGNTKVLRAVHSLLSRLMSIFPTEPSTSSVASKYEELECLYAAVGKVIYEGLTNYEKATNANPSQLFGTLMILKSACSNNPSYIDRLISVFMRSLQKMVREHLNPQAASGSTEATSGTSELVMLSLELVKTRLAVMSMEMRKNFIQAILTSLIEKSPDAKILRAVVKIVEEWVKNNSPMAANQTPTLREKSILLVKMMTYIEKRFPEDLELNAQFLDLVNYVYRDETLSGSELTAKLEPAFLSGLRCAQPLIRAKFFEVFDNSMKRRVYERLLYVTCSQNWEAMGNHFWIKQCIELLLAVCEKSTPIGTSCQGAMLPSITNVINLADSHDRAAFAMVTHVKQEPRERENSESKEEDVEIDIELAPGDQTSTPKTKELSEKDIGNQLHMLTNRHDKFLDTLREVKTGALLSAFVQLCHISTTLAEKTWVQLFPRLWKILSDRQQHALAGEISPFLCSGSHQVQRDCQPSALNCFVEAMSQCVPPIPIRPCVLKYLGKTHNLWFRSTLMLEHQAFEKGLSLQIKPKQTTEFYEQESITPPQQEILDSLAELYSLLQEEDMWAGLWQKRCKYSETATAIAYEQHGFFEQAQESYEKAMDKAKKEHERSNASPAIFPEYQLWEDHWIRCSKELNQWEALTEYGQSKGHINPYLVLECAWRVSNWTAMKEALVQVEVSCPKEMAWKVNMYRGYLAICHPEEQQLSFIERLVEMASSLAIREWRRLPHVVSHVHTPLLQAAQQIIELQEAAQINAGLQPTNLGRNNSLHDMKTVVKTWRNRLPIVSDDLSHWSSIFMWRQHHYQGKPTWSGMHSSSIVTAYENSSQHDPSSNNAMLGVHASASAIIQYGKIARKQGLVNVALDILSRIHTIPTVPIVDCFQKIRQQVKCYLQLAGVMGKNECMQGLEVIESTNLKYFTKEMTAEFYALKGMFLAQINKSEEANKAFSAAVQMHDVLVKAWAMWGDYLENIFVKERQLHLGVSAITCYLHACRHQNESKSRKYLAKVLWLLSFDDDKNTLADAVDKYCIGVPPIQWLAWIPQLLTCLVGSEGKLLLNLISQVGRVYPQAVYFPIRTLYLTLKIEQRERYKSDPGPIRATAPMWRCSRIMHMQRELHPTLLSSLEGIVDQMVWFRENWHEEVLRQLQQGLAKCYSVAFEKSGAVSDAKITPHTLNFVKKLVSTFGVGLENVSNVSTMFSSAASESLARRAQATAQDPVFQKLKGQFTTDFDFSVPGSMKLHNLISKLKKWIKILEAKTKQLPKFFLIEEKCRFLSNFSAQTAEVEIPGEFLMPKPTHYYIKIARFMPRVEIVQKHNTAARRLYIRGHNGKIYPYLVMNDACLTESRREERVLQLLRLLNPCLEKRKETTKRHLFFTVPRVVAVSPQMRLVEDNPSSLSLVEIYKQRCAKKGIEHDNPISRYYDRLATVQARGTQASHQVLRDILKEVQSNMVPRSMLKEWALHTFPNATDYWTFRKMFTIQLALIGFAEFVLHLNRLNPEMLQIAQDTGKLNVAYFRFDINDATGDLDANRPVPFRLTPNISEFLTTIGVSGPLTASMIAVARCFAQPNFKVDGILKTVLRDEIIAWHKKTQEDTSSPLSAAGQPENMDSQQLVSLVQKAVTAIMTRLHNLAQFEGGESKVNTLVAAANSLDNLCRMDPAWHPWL", "UniProt Q9Y265": "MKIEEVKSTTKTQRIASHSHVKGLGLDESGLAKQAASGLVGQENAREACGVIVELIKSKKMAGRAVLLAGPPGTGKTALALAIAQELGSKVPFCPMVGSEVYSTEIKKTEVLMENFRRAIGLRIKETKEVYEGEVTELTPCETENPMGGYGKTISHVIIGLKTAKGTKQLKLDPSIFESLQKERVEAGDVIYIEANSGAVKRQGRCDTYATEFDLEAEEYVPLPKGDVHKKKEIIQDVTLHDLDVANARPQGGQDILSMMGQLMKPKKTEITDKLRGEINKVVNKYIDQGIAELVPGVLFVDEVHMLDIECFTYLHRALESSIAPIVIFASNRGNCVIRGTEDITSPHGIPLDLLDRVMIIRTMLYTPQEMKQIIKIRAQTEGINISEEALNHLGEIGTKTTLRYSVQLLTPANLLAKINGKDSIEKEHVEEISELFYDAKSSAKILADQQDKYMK", "UniProt Q9BUQ8": "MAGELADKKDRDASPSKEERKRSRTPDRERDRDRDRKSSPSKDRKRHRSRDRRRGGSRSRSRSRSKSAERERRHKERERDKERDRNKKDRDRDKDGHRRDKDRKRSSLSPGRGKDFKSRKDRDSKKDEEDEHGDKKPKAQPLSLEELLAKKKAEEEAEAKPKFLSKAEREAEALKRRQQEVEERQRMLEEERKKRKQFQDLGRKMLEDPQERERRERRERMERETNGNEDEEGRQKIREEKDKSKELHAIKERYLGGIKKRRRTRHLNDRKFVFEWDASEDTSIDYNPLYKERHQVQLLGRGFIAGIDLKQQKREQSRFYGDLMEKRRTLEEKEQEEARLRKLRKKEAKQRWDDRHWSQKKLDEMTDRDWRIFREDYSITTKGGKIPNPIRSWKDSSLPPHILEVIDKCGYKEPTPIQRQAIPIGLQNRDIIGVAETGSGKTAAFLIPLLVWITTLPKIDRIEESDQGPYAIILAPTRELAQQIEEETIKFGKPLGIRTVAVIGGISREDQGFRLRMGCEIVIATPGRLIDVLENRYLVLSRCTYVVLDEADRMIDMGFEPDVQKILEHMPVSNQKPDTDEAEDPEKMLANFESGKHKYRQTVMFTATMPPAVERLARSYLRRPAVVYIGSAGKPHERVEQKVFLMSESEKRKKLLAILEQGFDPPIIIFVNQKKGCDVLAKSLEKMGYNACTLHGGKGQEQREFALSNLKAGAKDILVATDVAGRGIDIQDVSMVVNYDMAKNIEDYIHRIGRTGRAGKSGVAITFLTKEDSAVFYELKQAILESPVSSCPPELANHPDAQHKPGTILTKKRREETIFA", "UniProt Q9Y5U2": "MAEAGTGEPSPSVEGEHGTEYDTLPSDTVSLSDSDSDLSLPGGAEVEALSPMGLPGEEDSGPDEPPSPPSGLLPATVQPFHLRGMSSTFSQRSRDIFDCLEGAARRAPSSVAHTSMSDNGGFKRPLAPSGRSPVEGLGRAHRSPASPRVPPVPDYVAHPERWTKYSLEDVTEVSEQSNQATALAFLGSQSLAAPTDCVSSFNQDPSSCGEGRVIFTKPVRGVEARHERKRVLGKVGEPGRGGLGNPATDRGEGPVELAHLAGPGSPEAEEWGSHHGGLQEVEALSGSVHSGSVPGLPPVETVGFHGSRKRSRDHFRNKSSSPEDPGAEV"},
  "source": "paper PMC5460035",
  "key": {"[1]": {"molecular_target": "TAP-tagged RUVBL2 (human) (UniProt Q9Y230)", "experiment": "affinity purification with mass spectrometry; TAP-MS as in a1, chromatin fraction (digested overnight with benzonase, RNase A and DNaseI)"}, "TAP-tagged TBC1D7": {"molecular_target": "T1, TAP-tagged TBC1D7 (UniProt Q9P0N9)", "T1 sequence": "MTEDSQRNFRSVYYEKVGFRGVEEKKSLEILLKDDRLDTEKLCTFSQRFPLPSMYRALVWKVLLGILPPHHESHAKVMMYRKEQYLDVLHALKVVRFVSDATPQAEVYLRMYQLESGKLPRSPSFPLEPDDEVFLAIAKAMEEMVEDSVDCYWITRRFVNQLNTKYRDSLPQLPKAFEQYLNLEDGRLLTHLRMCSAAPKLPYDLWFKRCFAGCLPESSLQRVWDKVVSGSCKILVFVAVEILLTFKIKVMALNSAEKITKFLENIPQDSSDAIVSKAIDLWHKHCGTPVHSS", "experiment": "affinity purification with mass spectrometry; TAP-MS: TAP-tagged bait induced with 3 uM ponasterone A for 48 h in stable EcR 293 cells; IgG sepharose, TEV cleavage, calmodulin sepharose, LC-MS/MS; soluble and chromatin fractions purified separately, the fraction is not told for these hits"}, "TAP-tagged TSC1": {"molecular_target": "T2, TAP-tagged TSC1 (UniProt Q92574)", "T2 sequence": "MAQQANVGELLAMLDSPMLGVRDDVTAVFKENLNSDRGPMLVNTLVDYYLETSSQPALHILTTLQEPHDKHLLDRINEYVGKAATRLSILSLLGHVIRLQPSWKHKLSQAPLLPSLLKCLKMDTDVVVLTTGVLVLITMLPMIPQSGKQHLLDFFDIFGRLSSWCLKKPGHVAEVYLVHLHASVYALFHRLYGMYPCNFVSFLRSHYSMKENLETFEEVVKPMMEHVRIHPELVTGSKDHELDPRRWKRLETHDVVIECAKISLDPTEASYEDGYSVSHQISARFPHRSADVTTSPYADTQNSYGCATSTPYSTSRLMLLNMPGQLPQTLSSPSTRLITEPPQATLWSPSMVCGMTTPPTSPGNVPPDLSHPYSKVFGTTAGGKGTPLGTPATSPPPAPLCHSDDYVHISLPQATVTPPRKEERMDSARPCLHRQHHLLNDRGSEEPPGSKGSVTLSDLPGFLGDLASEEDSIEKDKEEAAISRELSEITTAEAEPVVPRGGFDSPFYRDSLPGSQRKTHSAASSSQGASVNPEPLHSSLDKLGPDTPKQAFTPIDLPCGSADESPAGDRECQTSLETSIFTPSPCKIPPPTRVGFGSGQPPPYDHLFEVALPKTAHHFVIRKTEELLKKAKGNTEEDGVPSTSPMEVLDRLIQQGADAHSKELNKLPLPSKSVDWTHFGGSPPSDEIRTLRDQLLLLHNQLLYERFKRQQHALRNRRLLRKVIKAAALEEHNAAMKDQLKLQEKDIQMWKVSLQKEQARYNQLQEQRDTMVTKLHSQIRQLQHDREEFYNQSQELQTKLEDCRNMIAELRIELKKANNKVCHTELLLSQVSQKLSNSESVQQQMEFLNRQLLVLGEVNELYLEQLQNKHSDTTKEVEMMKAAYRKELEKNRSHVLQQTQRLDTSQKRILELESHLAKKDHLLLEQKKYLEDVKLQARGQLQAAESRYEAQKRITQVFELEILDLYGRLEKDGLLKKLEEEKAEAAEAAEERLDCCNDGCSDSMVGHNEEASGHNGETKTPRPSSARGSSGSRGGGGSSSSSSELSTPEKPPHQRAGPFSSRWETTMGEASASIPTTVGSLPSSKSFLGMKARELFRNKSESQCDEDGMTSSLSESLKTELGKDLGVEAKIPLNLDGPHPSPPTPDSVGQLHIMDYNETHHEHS", "experiment": "affinity purification with mass spectrometry; TAP-MS: TAP-tagged bait induced with 3 uM ponasterone A for 48 h in stable EcR 293 cells; IgG sepharose, TEV cleavage, calmodulin sepharose, LC-MS/MS; soluble and chromatin fractions purified separately, the fraction is not told for these hits"}, "TAP-tagged TSC2": {"molecular_target": "TAP-tagged TSC2 (UniProt P49815)", "experiment": "affinity purification with mass spectrometry; TAP-MS: TAP-tagged bait induced with 3 uM ponasterone A for 48 h in stable EcR 293 cells; IgG sepharose, TEV cleavage, calmodulin sepharose, LC-MS/MS; soluble and chromatin fractions purified separately, the fraction is not told for these hits"}, "EFTUD2-FLAG": {"molecular_target": "T3, EFTUD2-FLAG (UniProt Q15029)", "T3 sequence": "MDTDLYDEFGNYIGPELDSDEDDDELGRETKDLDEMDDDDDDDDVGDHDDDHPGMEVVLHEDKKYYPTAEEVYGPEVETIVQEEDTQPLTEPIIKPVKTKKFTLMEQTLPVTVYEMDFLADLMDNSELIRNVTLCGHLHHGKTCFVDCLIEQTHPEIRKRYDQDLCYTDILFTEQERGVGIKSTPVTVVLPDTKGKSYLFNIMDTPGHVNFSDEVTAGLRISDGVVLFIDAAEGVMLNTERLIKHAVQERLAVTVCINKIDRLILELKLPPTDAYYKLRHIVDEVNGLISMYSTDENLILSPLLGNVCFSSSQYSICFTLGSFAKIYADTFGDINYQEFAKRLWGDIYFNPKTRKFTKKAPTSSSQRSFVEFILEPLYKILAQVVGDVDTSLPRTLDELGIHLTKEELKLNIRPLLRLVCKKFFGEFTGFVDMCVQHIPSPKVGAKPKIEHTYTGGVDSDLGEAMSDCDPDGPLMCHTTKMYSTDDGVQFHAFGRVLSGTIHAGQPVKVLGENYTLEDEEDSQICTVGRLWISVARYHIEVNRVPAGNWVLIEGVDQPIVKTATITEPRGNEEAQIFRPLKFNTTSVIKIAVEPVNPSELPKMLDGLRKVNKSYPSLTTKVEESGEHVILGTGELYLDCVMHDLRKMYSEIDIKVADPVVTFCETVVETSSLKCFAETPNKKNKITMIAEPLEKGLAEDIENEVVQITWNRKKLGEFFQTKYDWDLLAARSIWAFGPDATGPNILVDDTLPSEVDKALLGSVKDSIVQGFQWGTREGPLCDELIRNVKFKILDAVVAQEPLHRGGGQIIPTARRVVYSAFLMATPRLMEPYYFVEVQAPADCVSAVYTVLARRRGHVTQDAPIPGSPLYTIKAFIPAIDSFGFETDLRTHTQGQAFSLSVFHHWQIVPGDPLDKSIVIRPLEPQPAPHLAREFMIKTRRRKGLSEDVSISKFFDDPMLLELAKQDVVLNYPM", "experiment": "affinity purification with mass spectrometry; triple SILAC: FLAG-tagged bait in HEK 293 cells with control siRNA (medium) or siRNA against ZNHIT2 or RUVBL2 (heavy), untransfected cells (light) as control; anti-FLAG M2 magnetic beads, lysis buffer with 100 mM KCl and 0.1% NP-40; MaxQuant"}, "TAP-tagged SLC7A6OS": {"molecular_target": "T4, TAP-tagged SLC7A6OS (UniProt Q96CW6)", "T4 sequence": "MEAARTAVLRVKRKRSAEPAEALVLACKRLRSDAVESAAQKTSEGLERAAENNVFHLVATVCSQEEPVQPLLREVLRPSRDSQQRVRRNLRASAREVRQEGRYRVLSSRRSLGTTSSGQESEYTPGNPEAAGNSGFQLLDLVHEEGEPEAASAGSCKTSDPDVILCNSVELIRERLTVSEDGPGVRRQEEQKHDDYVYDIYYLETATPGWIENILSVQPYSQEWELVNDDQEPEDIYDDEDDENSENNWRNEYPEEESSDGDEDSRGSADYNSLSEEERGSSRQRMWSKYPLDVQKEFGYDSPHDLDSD", "experiment": "affinity purification with mass spectrometry; TAP-MS: TAP-tagged bait induced with 3 uM ponasterone A for 48 h in stable EcR 293 cells; IgG sepharose, TEV cleavage, calmodulin sepharose, LC-MS/MS; soluble and chromatin fractions purified separately, the fraction is not told for these hits"}, "[2]": {"molecular_target": "T5, TAP-tagged ZNHIT2 (human) (UniProt Q9UHR6)", "T5 sequence": "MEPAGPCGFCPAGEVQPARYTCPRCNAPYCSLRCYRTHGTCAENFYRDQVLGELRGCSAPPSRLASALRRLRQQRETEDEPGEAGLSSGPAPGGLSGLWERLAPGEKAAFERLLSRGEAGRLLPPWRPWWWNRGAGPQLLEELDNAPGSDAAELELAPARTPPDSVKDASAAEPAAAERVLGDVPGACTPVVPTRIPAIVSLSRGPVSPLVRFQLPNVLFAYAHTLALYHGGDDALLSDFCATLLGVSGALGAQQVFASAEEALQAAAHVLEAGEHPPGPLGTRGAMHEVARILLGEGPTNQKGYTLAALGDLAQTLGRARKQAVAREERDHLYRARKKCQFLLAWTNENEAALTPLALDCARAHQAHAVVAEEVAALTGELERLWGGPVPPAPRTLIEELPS", "experiment": "affinity purification with mass spectrometry; TAP-MS: TAP-tagged bait induced with 3 uM ponasterone A for 48 h in stable EcR 293 cells; IgG sepharose, TEV cleavage, calmodulin sepharose, LC-MS/MS; soluble and chromatin fractions purified separately, the fraction is not told for these hits"}},
  "note": "Results are given in words; binding and its absence hold for the method and conditions named. Binding seen in cells or lysates may run through a third protein. These calls come from enrichment with a bait or labelling near it, and not all partners need be listed. For some assays here: Where a sequence is shown, tags or fusion partners need not be part of it.",
  "data": [
    {"substance": "TRRAP (from UniProt Q9Y4A5 1-3859)", "values": [
      {"measurement": "binding", "setting": "[1]", "result": "binds"}
    ]},
    {"substance": "RUVBL1 (from UniProt Q9Y265 1-456)", "values": [
      {"measurement": "binding", "setting": "TAP-tagged TBC1D7", "result": "binds"},
      {"measurement": "binding", "setting": "TAP-tagged TSC1", "result": "binds"},
      {"measurement": "binding", "setting": "TAP-tagged TSC2", "result": "binds"}
    ]},
    {"substance": "DDX23 (from UniProt Q9BUQ8 1-820)", "values": [
      {"measurement": "binding", "setting": "EFTUD2-FLAG", "result": "binds"}
    ]},
    {"substance": "SNRNP200 (from UniProt O75643 1-2136)", "values": [
      {"measurement": "binding", "setting": "EFTUD2-FLAG", "result": "binds"}
    ]},
    {"substance": "TSSC4 (from UniProt Q9Y5U2 1-329)", "values": [
      {"measurement": "binding", "setting": "TAP-tagged SLC7A6OS", "result": "binds"},
      {"measurement": "binding", "setting": "[2]", "result": "binds"}
    ]}
  ]
}
